From patent US10881698B2, “Diagnosis and treatment for respiratory tract diseases” (THE TRUSTEES OF THE UNIVERSITY OF PENNSYLVANIA, priority 2012, dated 2021)
Some entries share one result that the patent states for a list of compounds. At least one structure is not confirmed: it was looked up by name or label, or the drawing left a doubt.

Test system: T2R38
Assay: Fluo-4 Ca2+ imaging in primary human sinonasal ALI cultures
Type: cell-based
Details: within one time point 90% of the time; within 2 frames (10 sec) 10% of the time

Structure (SMILES)	Onset of the Ca2+ responses after addition of the compounds
CCCCCCCCCC(=O)CC(=O)N[C@H]1CCOC1=O [C12HSL, N-3-oxo-dodecanoyl-L-homoserine lactone]	≤ 5 s
NC(=S)Nc1ccccc1 [PTC, phenylthiocarbamide]	≤ 5 s
